Source: PMC9609824 (Molecules, 2022)

Key:
[1] = freeze–thaw, room temperature, −80 °C (4 and 24 h), autosampler (24 h); %error ≤ 15 %, % CV ≤ 15%
[2] = Pharmacokinetic interaction study of glipizide with APE/AND in normal rats
[3] = Pharmacokinetic interaction study of glipizide with APE/AND in diabetic rats (streptozotocin/nicotinamide induced); conditions: diabetic versus normal rats
[4] = male, Wistar, rat, plasma, po, 5 mg/kg

For `Cc1cnc(C(=O)NCCc2ccc(S(=O)(=O)NC(=O)NC3CCCCC3)cc2)cn1` [GLZ, glipizide], the “Stability of glipizide in plasma under storage conditions” value [1] was “No significant degradation was observed”, the AUC(0-t) [2, 4] was 25100 ng·h/mL and the Cmax [2, 4] was 2040 ± 359 ng/mL. The MRT inf [2, 4] was 19.3 ± 6.1 h, the Tmax [2, 4] was 5.6 ± 0.7 h and the “AUMC0–∞ of glipizide in plasma” value ([2]; normal rats, GLZ 5 mg/kg BW oral on day 7, alone or after APE 300 mg/kg BW or AND 15 mg/kg BW for 7 days, mean ± SEM, NCA) was 637,882.6 ± 162,429 ng/mL·h^2. The “Plasma concentration of glipizide in diabetic rats relative to normal rats” value [3] was 10 times.
